According to patent US11951098B2, “Therapeutic agent for meibomian dysfunction” (SANTEN PHARMACEUTICAL CO., LTD., priority 2013, dated 2024):
At least one structure is not confirmed: it was looked up by name or label, or the drawing left a doubt.

Assays:
[1] = tested on: HR-AD feed fed Hos: HR-1 series hairless mouse; test: Test using HR-AD feed fed hairless mouse; format: in vivo, Hos: HR-1 series hairless mice; details: 0.1% suspension instilled, versus physiological saline group
Experimental: It has been known that a HR-AD feed is fed to Hos: HR-1 series hairless mouse, obstruction of the meibomian gland orifices similar to the signs/findings of MGD could be recognized (Japanese Patent Application No. 2012-137778). Thus, effects of sirolimus and deforolimus which are representative examples of the present compounds on the obstruction were investigated.
0.1% (w/v) sirolimus suspension: it was prepared by suspending in 0.01% (w/v) hydroxypropylmethyl cellulose.
0.1% (w/v) deforolimus suspension: it was prepared by suspending in 0.01% (w/v) hydroxypropylmethyl cellulose. Incidentally, deforolimus used in the present test was prepared according to the method described in JP 2005-516065A.
Six-weeks old male Hos: HR-1 series hairless mice were grouped into 5 mice of a normal feed fed group (CRF-1 feed, available from Oriental Yeast Co., Ltd.) and 15 mice of a HR-AD feed fed group (available from Nosan Corporation), and fed the normal feed or the HR-AD feed, respectively, which were spontaneously taken. After 28th day from initiation of the feeding, the meibomian gland orifices were observed by using a slit lamp, and a number of obstructive orifices among the eight meibomian gland orifices at the center of the upper eyelid was measured. […]

[2] = tested on: complete Freund's adjuvant administered rabbit; test: Test using complete Freund's adjuvant administered rabbit; format: in vivo, Japanese white rabbits; details: 0.1% suspension instilled, versus physiological saline group
Experimental: In a complete Freund's adjuvant administered rabbit, telangiectasia around the meibomian gland orifices, and obstruction at the meibomian gland orifices, which are similar to the signs/findings of MGD can be recognized. Effects of sirolimus which was a representative example of the present compound on the telangiectasia and obstruction were investigated (see JP 2014-024835A).
0.1% (w/v) sirolimus suspension: it was prepared by suspending in 0.01% (w/v) hydroxypropylmethyl cellulose. Incidentally, with regard to sirolimus, that purchased from LKT Laboratories, Inc., (Catalog number: R0161) was used (which is the same in the following Examples).
10 μL of the complete Freund's adjuvant was administered to the right upper eyelid (3 portions) of about 2 kg of male Japanese white rabbits, respectively. […]
Incidentally, with regard to the score of telangiectasia, in accordance with the criteria in the following Tables 1 and 2, the eyelid margin of the upper eyelid was equally divided to three fractions of the ear side, the center portion and the nose side, the score of telangiectasia around the meibomian gland orifices was judged with regard to the respective fractions, and the sum of the scores of the three fractions was calculated as a score per one eye. […]

CO[C@H]1C[C@@H]2CC[C@@H](C)[C@@](O)(O2)C(=O)C(=O)N2CCCC[C@H]2C(=O)O[C@H]([C@H](C)C[C@@H]2CC[C@@H](O)[C@H](OC)C2)CC(=O)[C@H](C)/C=C(\C)[C@@H](O)[C@@H](OC)C(=O)[C@H](C)C[C@H](C)/C=C/C=C/C=C/1C [0.1% Sirolimus suspension, sirolimus]
decreased: Effect on number of the obstructions of the meibomian gland orifices (in words) [1] | Effect on number of the obstructive orifices (in words) [2] | Effect on score of telangiectasia around the meibomian gland orifices (in words) [2]
